Reference: PMC8822587 (ACS infectious diseases, 2021)

How the values were obtained:
P. falciparum 3D7 = experiment: SYBR Green I fluorescence antiplasmodial assay, 3D7; format: cell-based; details: Plasmodium falciparum, 3D7, 72 h, read-out: 3D7 EC50
P. falciparum strain Dd2 = experiment: SYBR Green I fluorescence antiplasmodial assay, Dd2; format: cell-based; details: Plasmodium falciparum, DD2, read-out: Dd2 EC50 (unit inferred)

SMILES: O=C(CCCCCCC(=O)Nc1ccccc1)NO [SAHA, suberanilohydroxamic acid]
- EC50 (P. falciparum 3D7): 160 ± 30 nM
- EC50 (P. falciparum strain Dd2): 100 ± 20 nM
